# Only a part is listed here, and it is no random draw. The calls were merged from several studies; some rest on single wells. This is one part of the list.
# Key:
# Conditions in all cases: stereoisomer not certain
# [1] = biological target: T1, OR5T1 (Homo sapiens) (UniProt Q8NG75)
# T1 sequence (whole entry): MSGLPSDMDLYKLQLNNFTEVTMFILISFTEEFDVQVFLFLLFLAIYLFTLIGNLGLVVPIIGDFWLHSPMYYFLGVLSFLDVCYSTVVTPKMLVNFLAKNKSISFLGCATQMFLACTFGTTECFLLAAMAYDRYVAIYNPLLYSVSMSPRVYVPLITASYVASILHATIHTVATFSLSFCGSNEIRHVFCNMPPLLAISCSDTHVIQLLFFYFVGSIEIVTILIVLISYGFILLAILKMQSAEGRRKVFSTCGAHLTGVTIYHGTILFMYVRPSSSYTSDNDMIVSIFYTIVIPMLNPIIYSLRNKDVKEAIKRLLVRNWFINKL
# Procedure, shortened: (§1)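 Assay methods differ from source to source, frequently being transient luciferase assays in mammalian cell lines. For each receptor–molecule pair, the label responsive (active) applies when the original authors judged the measured signal statistically different from baseline, and non-responsive (inactive) applies otherwise.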
# [2] = test system: T2, OR5T1
# T2 sequence (whole entry): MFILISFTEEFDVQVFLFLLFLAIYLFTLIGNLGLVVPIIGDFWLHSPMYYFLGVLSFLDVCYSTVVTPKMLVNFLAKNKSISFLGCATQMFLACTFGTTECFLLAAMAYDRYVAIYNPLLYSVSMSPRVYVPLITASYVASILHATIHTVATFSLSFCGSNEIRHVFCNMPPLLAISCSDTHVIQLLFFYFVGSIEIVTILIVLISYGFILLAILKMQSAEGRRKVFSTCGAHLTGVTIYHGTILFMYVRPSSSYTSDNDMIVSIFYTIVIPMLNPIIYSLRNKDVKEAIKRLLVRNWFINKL
# Procedure, shortened: as §1
# [3] = test system: T3, OR5T2
# T3 sequence (whole entry): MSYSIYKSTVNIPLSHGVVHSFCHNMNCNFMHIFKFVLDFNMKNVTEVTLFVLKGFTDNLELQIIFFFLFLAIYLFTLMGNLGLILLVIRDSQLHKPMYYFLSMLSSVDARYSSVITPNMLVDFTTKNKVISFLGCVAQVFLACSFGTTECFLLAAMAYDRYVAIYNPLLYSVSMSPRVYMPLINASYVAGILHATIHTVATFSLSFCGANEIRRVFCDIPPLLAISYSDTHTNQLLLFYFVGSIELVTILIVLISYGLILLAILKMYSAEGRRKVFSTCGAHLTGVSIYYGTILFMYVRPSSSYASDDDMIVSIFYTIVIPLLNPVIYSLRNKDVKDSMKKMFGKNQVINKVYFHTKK
# Procedure, shortened: as §1
# [4] = test system: T4, OR5T2; remark: listed apart in the source
# T4 sequence (whole entry): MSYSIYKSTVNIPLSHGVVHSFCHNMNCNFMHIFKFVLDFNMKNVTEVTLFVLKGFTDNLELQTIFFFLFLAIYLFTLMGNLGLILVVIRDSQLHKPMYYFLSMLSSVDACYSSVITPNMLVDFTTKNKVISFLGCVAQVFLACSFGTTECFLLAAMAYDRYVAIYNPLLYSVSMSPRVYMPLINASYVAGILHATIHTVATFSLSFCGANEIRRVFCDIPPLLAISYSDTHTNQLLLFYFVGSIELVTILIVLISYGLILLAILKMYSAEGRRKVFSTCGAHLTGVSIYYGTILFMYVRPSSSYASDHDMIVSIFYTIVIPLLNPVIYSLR
# Procedure, shortened: as §1
# [5] = test system: T5, OR5T3
# T5 sequence (whole entry): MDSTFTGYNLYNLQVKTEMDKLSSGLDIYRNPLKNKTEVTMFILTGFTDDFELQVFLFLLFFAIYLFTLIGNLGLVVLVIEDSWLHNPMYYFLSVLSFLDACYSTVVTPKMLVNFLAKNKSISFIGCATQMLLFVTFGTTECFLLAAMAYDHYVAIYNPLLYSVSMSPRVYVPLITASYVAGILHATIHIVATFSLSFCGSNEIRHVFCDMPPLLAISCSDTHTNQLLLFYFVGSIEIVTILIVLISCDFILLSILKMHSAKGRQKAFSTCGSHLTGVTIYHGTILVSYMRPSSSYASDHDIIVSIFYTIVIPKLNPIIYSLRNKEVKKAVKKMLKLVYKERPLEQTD
# Procedure, shortened: as §1
# [6] = biological target: T6, OR5V1 (Homo sapiens) (UniProt Q9UGF6)
# T6 sequence (whole entry): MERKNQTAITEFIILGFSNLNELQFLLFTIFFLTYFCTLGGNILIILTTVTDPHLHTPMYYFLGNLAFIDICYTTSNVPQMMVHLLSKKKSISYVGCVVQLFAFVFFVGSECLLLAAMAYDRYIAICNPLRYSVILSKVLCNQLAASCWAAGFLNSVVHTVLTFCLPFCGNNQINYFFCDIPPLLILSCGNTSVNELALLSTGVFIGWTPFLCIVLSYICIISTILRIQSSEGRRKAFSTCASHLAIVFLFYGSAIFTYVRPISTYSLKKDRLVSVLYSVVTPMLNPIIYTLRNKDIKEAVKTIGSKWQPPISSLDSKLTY
# Procedure, shortened: as §1
# [7] = test system: T7, OR5W2
# T7 sequence (whole entry): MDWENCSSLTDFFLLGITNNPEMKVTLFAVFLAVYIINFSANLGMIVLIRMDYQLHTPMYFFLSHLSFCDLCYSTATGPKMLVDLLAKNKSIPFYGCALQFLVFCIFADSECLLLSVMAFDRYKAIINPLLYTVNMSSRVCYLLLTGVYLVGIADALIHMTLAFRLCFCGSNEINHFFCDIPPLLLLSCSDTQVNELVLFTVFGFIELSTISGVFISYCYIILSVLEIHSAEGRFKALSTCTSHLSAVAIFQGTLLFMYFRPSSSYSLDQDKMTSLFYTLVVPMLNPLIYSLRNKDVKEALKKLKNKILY
# Procedure, shortened: as §1
# [8] = biological target: T8, OR6A2 (Homo sapiens) (UniProt O95222)
# T8 sequence (whole entry): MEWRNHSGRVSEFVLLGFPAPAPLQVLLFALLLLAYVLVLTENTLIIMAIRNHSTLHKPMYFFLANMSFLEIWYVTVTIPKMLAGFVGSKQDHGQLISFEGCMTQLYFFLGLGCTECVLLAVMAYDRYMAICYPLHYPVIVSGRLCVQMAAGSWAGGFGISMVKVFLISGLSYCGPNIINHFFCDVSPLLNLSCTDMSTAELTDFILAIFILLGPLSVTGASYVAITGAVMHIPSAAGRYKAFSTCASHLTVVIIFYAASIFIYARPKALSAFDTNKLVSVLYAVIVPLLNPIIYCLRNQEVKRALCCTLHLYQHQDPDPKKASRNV
# Procedure, shortened: as §1
# [9] = test system: T9, OR6B1
# T9 sequence (whole entry): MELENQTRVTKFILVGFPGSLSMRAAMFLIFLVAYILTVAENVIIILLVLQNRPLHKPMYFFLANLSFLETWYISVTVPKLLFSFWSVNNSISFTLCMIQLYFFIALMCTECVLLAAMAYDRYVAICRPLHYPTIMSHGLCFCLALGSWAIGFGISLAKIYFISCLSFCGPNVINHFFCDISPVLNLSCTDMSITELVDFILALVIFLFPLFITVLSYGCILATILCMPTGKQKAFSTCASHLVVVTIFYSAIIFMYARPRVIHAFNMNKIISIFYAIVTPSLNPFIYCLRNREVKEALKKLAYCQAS
# Procedure, shortened: as §1
# [10] = test system: T10, OR6B2
# T10 sequence (whole entry): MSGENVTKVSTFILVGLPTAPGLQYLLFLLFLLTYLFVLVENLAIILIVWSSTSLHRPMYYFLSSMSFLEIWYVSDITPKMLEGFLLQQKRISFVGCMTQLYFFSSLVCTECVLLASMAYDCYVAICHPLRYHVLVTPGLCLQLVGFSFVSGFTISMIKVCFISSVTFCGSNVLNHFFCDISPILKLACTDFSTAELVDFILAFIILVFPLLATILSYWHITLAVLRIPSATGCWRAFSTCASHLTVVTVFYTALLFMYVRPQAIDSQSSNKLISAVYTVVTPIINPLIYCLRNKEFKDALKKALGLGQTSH
# Procedure, shortened: as §1
# [11] = test system: T11, OR6B3
# T11 sequence (whole entry): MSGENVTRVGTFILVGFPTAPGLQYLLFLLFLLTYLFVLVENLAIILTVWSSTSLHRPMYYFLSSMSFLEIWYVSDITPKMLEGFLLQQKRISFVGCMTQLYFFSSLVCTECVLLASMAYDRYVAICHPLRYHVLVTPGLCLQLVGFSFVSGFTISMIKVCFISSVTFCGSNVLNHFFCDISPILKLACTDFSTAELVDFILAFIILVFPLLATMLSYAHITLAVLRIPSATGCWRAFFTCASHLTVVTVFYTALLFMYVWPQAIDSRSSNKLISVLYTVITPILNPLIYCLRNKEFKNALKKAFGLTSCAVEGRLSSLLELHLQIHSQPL
# Procedure, shortened: as §1
# [12] = test system: T12, OR6C1
# T12 sequence (whole entry): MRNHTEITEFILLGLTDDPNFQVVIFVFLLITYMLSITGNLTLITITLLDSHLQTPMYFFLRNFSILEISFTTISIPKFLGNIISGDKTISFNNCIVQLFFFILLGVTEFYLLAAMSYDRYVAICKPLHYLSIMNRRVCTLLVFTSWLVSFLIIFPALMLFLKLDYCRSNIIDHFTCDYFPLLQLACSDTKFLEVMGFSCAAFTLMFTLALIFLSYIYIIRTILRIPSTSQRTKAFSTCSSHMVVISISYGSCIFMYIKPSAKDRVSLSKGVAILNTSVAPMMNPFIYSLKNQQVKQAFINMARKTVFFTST
# Procedure, shortened: as §1
# [13] = biological target: T13, OR6C2 (Homo sapiens) (UniProt Q9NZP2)
# T13 sequence (whole entry): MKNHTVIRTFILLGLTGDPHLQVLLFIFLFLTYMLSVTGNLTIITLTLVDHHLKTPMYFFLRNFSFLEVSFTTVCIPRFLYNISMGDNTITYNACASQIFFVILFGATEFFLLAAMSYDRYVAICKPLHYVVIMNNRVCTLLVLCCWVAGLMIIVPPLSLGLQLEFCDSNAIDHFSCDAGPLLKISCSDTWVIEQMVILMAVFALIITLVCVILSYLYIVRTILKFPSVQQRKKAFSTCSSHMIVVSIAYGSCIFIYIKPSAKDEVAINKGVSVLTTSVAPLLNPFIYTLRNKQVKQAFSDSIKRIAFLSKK
# Procedure, shortened: as §1
# [14] = biological target: T14, OR6C3 (Homo sapiens) (UniProt Q9NZP0)
# T14 sequence (whole entry): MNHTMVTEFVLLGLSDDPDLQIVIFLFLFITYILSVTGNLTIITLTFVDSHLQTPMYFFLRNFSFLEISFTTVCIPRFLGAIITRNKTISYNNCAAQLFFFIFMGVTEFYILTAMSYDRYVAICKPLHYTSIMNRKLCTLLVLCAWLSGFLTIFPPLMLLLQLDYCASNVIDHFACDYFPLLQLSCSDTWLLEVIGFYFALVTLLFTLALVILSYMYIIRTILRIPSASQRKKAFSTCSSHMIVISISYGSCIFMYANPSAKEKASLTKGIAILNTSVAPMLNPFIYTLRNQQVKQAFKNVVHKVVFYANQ
# Procedure, shortened: as §1
SMILES,odorant receptor agonist call [1],odorant receptor agonist call [2],odorant receptor agonist call [3],odorant receptor agonist call [4],odorant receptor agonist call [5],odorant receptor agonist call [6],odorant receptor agonist call [7],odorant receptor agonist call [8],odorant receptor agonist call [9],odorant receptor agonist call [10],odorant receptor agonist call [11],odorant receptor agonist call [12],odorant receptor agonist call [13],odorant receptor agonist call [14]
CC(C)C=O,inactive,inactive,inactive,inactive,inactive,inactive,inactive,inactive,inactive,inactive,inactive,inactive,inactive,inactive
CC1=NC(C)SC1C (stereo not given),inactive,inactive,inactive,inactive,inactive,active,inactive,inactive,active,inactive,inactive,inactive,inactive,inactive
CC(C)C(=O)O,inactive,inactive,inactive,inactive,inactive,inactive,inactive,inactive,inactive,inactive,inactive,inactive,inactive,inactive
CCCCCC(C)=O,inactive,inactive,inactive,inactive,inactive,inactive,inactive,inactive,inactive,inactive,inactive,inactive,inactive,inactive
COC(=O)c1ccccc1,inactive,inactive,inactive,inactive,inactive,active,inactive,inactive,inactive,inactive,inactive,inactive,inactive,inactive

# Reference: the M2OR odorant receptor database
